This note sets out measurements from paper PMC6065439.

By UniProt entry, the sequences of proteins in these tests, tags left out. Residues count along the entry.
UniProt Q07954, residues 20-4544: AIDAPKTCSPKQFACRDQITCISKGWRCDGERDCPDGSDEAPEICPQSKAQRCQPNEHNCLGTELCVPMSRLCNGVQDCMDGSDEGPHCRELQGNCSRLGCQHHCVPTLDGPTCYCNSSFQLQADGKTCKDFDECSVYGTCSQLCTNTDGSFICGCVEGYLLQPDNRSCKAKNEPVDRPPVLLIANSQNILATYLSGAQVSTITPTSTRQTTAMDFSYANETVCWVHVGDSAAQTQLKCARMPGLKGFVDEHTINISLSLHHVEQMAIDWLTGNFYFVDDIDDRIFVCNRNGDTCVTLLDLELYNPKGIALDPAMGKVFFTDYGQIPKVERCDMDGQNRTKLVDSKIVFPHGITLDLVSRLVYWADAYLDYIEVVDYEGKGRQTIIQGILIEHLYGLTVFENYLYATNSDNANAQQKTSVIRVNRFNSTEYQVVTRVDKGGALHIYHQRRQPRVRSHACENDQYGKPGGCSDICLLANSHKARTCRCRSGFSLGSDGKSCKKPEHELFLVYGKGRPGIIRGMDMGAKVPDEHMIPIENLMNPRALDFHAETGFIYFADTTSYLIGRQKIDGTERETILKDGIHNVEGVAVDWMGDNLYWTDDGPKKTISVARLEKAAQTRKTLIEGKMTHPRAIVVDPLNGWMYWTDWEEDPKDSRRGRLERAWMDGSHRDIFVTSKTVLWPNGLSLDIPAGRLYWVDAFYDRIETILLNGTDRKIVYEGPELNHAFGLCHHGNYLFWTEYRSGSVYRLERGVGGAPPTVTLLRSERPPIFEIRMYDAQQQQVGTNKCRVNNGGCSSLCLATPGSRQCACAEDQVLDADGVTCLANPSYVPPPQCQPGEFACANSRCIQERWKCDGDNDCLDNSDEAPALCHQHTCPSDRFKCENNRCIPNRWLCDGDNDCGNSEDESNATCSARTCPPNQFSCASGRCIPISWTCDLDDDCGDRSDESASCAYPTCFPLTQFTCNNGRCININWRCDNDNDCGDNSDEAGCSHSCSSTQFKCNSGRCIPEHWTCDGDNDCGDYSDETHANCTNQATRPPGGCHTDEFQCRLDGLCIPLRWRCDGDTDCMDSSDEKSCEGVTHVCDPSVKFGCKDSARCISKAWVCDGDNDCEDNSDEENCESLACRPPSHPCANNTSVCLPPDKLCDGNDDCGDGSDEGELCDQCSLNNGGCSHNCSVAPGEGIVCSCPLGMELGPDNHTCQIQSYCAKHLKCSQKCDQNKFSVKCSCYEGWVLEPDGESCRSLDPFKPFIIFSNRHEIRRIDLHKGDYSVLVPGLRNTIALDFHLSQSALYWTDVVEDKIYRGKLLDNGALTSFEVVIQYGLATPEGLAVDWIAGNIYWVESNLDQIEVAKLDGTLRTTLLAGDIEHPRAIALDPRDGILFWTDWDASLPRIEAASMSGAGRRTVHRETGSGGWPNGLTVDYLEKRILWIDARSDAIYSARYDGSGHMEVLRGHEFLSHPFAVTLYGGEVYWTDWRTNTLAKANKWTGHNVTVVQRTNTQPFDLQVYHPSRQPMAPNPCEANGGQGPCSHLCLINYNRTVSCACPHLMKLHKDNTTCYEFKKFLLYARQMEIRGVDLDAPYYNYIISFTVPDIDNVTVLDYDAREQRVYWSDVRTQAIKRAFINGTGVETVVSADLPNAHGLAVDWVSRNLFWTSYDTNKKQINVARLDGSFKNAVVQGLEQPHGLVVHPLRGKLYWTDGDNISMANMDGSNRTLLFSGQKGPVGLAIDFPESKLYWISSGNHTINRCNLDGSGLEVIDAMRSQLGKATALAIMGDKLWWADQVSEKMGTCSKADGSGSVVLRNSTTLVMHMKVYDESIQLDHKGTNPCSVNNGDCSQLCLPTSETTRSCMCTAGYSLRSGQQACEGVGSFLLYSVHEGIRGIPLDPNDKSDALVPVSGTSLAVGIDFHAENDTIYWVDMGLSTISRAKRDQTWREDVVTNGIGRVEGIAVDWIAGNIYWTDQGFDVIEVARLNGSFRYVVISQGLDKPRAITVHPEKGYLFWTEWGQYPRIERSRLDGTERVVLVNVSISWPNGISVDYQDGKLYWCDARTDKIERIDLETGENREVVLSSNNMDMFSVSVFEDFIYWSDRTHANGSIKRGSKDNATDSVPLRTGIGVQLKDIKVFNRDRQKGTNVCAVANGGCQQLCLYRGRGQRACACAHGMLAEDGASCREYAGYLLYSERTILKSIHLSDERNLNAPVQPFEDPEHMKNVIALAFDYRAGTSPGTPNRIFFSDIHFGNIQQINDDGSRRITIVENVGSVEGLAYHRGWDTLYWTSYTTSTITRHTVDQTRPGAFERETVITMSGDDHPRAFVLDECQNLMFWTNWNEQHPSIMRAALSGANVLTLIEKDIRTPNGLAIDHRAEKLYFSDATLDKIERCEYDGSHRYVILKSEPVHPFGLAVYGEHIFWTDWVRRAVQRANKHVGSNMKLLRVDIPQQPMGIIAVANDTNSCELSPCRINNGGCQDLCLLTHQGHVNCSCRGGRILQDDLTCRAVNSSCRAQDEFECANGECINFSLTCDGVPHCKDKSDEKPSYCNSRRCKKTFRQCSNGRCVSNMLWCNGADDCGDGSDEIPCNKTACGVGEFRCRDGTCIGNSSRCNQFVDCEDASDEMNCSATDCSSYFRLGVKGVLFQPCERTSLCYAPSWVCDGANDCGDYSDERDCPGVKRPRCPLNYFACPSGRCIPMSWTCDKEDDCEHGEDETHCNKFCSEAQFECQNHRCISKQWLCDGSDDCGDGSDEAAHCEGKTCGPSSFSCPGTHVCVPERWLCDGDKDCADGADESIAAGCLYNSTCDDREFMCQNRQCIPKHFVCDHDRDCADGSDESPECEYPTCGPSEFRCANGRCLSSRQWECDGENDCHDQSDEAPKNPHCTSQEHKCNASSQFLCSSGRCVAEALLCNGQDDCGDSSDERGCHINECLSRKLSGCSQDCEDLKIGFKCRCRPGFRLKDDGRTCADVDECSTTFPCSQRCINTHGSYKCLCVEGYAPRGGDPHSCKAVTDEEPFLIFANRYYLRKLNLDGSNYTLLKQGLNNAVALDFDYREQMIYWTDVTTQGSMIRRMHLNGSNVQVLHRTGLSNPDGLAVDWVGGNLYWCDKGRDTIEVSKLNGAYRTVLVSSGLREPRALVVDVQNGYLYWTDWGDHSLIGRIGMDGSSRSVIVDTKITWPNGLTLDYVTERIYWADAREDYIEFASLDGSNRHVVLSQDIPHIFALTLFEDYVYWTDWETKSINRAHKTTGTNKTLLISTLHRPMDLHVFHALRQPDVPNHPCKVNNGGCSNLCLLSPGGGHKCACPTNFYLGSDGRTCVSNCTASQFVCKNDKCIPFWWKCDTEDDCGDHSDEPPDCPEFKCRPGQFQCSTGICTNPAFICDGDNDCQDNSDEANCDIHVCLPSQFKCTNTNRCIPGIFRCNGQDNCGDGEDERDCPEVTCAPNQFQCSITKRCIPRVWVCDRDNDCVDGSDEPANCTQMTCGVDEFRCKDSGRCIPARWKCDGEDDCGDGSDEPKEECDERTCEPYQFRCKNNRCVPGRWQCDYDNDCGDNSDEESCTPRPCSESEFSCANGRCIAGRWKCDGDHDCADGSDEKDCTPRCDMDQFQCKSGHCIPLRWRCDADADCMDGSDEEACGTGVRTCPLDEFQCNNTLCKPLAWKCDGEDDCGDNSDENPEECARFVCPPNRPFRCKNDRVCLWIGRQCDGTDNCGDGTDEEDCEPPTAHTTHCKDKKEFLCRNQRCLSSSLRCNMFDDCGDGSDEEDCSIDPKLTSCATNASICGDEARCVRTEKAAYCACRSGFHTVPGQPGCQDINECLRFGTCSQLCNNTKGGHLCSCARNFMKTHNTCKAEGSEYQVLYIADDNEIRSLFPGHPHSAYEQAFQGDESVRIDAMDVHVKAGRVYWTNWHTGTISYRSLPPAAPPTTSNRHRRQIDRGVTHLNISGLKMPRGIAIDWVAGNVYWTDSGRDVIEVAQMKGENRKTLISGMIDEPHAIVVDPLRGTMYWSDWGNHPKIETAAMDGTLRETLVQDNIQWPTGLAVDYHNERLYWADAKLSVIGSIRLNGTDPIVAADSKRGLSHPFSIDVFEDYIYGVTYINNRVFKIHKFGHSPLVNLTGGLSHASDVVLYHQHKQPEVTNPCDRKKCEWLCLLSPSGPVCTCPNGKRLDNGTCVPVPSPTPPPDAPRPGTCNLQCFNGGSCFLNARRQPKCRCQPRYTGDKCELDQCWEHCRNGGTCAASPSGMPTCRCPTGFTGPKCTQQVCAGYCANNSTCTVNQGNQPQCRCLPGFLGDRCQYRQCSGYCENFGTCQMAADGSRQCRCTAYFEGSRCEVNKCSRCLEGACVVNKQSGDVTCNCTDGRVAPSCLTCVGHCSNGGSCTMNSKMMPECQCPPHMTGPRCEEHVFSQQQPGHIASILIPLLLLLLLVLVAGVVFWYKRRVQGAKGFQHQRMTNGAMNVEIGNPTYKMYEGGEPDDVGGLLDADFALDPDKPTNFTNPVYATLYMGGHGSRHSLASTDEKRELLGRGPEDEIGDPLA

Results are given in words; binding and its absence hold for the method and conditions named. In cells and extracts the contact can be indirect. Some binding calls cover weakened binding; strength is not graded here.

Assay [1] addresses LRP1 (human, endogenous in Hs578T cells) (human (endogenous in Hs578T)) (UniProt Q07954). Description: cross-linking + co-IP; adherent cells untreated or treated with 50 uM novobiocin for 16 h; cell surface proteins cross-linked with cell-impermeable DTSSP (3 mg/ml, 4 °C, 2 h); lysis in non-denaturing buffer (20 mM Tris-Cl pH 8, 137 mM NaCl, 1% NP40, 2 mM EDTA); IP with rabbit anti-LRP1 or isotype control on Protein A magnetic beads overnight at 4 °C; elution with beta-mercaptoethanol; blots for FN, LRP1 and Hsp90.

In assay [2] the target is LRP1 (mouse, endogenous in MEF-1 cells) (mouse (endogenous in MEF-1)) (UniProt Q91ZX7). The assay is described as above.

Consider “Fibronectin (human, endogenous in Hs578T cells) (from UniProt P02751 32-2477)”, for which the binding result in assay [1] was “binds”.

In the case of “Fibronectin (mouse, endogenous in MEF-1 cells) (from UniProt P11276 33-2477)”, the binding entry in assay [2] is “binds”.
